The list shows a part of the results. Most values lie at the level of the controls, where differences are scatter.

The chains behind the UniProt entries cited, without tags or fusion partners. Where a name states a change or a piece, a line headed by the entry shows the natural chain unless it says otherwise.
UniProt Q05BQ5, whole entry: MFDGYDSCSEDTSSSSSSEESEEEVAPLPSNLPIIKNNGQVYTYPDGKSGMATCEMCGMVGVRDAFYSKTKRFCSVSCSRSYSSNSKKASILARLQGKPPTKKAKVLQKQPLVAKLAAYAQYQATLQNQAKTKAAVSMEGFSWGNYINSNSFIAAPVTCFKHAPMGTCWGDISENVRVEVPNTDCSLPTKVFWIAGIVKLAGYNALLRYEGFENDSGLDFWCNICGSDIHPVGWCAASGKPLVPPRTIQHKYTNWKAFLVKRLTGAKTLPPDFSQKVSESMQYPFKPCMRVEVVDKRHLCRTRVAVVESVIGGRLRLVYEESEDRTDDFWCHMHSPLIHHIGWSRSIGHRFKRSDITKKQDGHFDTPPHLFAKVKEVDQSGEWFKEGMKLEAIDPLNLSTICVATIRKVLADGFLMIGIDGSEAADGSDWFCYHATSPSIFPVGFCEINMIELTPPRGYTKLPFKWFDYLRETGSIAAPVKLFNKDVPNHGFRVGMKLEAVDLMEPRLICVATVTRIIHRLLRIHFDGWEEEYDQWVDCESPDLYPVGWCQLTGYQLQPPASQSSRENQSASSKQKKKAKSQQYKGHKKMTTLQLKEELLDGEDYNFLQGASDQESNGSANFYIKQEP
UniProt Q07973: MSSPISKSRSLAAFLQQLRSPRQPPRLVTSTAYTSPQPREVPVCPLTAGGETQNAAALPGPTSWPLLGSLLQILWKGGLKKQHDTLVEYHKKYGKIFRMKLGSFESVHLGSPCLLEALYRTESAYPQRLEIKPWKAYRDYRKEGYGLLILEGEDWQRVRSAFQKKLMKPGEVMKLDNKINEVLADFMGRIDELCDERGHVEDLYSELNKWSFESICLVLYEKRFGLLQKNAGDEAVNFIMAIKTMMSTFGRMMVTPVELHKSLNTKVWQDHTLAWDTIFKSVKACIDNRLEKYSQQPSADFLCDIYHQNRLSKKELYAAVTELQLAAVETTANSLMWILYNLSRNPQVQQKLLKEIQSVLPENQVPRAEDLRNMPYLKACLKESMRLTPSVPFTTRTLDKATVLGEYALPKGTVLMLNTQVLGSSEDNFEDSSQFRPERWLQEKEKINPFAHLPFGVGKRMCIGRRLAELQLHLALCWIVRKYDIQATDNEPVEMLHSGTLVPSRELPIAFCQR
UniProt Q12778: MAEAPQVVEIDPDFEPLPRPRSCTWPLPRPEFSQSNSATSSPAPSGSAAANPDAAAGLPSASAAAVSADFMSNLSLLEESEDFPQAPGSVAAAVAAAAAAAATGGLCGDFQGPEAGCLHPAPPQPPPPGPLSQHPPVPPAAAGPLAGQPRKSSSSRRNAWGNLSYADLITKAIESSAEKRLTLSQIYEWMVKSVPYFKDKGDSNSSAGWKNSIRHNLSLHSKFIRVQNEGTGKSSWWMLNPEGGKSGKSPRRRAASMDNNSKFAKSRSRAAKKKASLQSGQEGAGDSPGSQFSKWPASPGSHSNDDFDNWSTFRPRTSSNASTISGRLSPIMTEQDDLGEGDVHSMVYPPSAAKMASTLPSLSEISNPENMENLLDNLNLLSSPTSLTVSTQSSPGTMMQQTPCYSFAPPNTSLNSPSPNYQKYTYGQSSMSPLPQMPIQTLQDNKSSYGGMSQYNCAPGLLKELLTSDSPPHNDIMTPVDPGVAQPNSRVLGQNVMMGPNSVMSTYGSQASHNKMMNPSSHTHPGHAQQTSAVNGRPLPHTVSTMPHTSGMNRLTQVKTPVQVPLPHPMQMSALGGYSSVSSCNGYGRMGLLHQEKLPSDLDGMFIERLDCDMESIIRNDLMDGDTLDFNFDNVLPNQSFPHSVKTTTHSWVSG
UniProt Q12872: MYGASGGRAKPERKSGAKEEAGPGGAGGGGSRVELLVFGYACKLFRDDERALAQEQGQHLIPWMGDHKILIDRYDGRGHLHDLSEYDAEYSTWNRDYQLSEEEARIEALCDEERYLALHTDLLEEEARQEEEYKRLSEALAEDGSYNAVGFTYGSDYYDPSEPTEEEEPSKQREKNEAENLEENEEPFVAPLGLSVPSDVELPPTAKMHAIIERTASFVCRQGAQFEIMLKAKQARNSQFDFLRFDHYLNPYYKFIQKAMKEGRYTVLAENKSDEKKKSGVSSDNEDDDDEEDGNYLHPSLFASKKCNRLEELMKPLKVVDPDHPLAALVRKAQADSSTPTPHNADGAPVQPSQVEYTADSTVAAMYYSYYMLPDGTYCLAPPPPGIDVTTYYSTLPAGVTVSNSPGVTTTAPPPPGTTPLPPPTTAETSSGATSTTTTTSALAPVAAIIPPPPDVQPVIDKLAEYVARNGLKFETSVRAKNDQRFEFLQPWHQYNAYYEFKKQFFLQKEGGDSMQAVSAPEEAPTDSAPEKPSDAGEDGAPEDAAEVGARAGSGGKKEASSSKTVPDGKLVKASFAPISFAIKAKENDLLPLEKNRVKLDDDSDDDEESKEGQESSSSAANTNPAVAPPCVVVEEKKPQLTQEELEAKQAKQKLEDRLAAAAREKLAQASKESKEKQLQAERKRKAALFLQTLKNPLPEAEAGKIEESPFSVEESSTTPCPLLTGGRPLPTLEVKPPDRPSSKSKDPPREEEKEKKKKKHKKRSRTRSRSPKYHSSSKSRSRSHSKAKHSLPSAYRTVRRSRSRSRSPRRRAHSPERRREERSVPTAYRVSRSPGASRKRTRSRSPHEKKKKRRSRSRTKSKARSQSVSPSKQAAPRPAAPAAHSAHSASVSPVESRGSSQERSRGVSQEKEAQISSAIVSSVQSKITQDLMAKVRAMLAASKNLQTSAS
UniProt Q00978: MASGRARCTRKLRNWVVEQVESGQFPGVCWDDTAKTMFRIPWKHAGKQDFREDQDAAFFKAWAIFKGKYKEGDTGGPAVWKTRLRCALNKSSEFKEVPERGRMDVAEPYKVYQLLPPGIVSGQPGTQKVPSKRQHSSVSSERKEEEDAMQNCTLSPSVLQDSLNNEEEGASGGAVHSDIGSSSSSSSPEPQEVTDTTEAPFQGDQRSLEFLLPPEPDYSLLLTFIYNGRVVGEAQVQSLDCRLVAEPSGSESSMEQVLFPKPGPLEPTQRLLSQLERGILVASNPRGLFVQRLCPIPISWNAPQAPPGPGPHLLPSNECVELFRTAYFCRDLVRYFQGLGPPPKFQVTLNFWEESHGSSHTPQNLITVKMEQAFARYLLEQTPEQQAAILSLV
UniProt Q12840: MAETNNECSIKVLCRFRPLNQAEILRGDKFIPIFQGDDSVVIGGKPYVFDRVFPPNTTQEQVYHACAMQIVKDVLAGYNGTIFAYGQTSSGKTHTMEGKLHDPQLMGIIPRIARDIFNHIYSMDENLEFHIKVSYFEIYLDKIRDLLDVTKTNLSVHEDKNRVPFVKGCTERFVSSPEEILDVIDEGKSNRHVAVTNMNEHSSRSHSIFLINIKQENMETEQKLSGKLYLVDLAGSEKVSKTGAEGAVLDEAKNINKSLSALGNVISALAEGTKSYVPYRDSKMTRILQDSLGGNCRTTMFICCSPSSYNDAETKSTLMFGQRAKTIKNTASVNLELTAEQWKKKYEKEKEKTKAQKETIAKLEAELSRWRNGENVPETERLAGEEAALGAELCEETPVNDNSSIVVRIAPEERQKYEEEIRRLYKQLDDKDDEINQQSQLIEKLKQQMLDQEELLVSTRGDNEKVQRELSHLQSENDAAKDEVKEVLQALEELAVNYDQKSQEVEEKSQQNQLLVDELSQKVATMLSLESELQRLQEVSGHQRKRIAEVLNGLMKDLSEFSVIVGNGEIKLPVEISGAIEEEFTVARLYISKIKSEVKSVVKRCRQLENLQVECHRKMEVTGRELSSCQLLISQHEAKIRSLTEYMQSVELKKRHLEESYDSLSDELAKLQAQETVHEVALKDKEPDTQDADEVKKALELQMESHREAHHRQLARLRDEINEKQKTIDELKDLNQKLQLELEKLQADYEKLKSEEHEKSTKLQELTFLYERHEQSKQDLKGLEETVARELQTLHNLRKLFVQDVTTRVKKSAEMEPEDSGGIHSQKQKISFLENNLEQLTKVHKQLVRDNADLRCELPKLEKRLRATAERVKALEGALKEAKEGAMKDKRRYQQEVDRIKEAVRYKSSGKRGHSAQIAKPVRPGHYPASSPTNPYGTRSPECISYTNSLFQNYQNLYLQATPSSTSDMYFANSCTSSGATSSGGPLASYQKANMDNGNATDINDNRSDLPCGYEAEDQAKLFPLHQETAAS
UniProt Q02241: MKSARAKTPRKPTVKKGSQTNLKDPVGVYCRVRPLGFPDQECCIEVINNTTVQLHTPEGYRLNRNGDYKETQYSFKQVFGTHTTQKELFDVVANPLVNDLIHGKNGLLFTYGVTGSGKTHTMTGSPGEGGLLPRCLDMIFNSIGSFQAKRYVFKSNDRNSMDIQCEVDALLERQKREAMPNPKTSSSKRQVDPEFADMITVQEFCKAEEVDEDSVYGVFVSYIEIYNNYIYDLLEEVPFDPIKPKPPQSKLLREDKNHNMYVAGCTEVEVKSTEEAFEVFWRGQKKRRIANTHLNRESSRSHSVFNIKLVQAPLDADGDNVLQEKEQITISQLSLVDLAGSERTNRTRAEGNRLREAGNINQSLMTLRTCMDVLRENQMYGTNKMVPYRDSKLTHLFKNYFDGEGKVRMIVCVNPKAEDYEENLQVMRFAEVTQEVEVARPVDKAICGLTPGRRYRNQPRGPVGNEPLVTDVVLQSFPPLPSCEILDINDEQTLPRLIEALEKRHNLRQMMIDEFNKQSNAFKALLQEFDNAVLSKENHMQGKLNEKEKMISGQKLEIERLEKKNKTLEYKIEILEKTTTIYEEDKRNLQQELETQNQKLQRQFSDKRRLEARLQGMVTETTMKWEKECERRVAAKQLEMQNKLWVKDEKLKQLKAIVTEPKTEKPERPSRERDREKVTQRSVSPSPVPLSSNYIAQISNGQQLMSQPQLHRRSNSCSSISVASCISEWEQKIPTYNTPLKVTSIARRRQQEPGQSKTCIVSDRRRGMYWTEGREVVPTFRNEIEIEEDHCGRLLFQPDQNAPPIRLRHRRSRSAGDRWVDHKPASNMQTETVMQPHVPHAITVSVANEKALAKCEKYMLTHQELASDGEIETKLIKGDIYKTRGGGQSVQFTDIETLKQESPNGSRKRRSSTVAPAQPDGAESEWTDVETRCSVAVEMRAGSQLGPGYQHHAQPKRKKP
UniProt Q06481, whole entry: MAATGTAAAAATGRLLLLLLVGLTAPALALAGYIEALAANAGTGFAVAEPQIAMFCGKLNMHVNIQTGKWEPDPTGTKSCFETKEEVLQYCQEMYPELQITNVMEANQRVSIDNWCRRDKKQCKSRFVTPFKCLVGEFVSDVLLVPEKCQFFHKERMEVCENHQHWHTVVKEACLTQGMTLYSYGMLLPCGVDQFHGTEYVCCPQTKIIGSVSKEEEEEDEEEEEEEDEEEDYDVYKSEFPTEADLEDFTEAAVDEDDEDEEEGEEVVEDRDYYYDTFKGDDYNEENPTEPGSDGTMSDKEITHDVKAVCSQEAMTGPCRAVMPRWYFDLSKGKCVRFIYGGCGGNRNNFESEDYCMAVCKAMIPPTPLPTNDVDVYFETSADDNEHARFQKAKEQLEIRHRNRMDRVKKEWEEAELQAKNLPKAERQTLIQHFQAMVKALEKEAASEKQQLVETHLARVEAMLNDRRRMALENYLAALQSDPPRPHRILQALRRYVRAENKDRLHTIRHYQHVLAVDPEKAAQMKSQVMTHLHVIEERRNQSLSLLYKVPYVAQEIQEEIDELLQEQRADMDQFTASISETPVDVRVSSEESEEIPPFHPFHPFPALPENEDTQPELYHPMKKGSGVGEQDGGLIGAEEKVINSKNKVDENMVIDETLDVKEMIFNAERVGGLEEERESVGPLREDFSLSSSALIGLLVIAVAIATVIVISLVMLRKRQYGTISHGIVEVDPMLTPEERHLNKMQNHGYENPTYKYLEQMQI
UniProt Q05655: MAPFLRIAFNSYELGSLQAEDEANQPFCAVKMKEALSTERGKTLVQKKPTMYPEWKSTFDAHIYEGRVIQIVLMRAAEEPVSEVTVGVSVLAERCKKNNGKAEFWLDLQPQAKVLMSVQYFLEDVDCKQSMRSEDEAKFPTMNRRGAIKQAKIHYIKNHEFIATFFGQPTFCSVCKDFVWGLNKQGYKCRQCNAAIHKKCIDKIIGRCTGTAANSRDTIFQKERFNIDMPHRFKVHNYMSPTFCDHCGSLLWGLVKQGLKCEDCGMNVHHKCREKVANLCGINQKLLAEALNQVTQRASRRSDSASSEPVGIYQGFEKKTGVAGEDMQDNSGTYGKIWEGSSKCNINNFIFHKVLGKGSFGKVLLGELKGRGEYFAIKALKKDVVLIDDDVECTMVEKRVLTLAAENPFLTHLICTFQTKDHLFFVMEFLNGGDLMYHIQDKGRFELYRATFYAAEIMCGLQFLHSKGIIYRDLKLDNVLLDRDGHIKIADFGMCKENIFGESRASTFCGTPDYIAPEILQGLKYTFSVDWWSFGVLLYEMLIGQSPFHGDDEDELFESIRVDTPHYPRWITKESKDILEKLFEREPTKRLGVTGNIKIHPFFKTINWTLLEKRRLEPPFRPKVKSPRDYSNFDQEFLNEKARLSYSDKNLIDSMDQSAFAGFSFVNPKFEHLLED

Compound in this assay: Cc1nc(Nc2ncc(C(=O)Nc3c(C)cccc3Cl)s2)cc(N2CCN(CCO)CC2)n1 [dasatinib]
Put plainly: log2 fold change of tryptic peptide abundance, ligand vs vehicle (limited proteolysis) (log2 ratio); higher = more trypsin-susceptible (destabilized). Conditions: ligand concentration: 5 uM; sample: K562 cleared lysate.
Take “MBTD1 (peptide sequence: VAVVESVIGGR, peptide start residue: 304) (UniProt Q05BQ5)”: the log2 fold change was determined as 0.341.
As to “MRPL28 (peptide sequence: TPTPVHYRPHGAK, peptide start residue: 37) (UniProt Q13084)”, the log2 fold change is 0.424.
For “SOS1 (peptide sequence: TPDVFSSSPLHLQPPPLGKK, peptide start residue: 1222) (UniProt Q07889)”, the log2 fold change was -0.995.
Then “DNM1 (peptide sequence: KLQQYPR, peptide start residue: 445) (UniProt Q05193)”, with 0.235; and “CYP24A1 (peptide sequence: KLMKPGEVMK, peptide start residue: 165) (UniProt Q07973)”, with -0.0301; and “FOXO1 (peptide sequence: DKGDSNSSAGWK, peptide start residue: 196) (UniProt Q12778)”, with -0.135.
As for “ANK3 (peptide sequence: NANVNLSNK, peptide start residue: 687) (UniProt Q12955)”, the figure is 0.643; as for “UniProt Q12872 (peptide sequence: HSLPSAYR, peptide start residue: 790)”, -0.103.
Consider “IRF9 (peptide sequence: GRMDVAEPYK, peptide start residue: 101) (UniProt Q00978)”, for which the log2 fold change turned out to be 0.434.
As for “UniProt Q0PNE2 (peptide sequence: EANAGNLKPLFEFVR, peptide start residue: 109)”, the figure is 0.162; as for “CSTF3 (peptide sequence: LLAEKGDMNNAK, peptide start residue: 307) (UniProt Q12996)”, -0.345.
As for “EXOSC10 (peptide sequence: TARREDESYGYVLPNHMMLK, peptide start residue: 520) (UniProt Q01780)”, the figure is 1.08.
As for “LCP2 (peptide sequence: SLAPFDREPFTLGK, peptide start residue: 246) (UniProt Q13094)”, the figure is -0.0967; as for “KIF5A (peptide sequence: SAEMEPEDSGGIHSQK, peptide start residue: 812) (UniProt Q12840)”, 0.112; as for “NCBP1 (peptide sequence: TLAESDEGKLHVLR, peptide start residue: 575) (UniProt Q09161)”, -0.208.
Consider “KIF23 (peptide sequence: GMYWTEGR, peptide start residue: 767) (UniProt Q02241)”, for which the log2 fold change was 0.438.
As for “UniProt Q08170 (peptide sequence: RALEKLDGTEVNGR, peptide start residue: 155)”, the figure is -0.438; as for “CEBPZ (peptide sequence: RKGTDDFDFAGSFQGPR, peptide start residue: 948) (UniProt Q03701)”, -0.234; as for “HNRNPU (peptide sequence: GPEEKKDCEVVMMIGLPGAGK, peptide start residue: 490) (UniProt Q00839)”, 0.276.
Then “APLP2 (peptide sequence: HYQHVLAVDPEK, peptide start residue: 510) (UniProt Q06481)”, with 0.3; and “ATP7A (peptide sequence: SGACEDHSMAQAGEVVLK, peptide start residue: 157) (UniProt Q04656)”, with 0.218.
Then “PLP2 (peptide sequence: HTAAPTDPADGPV, peptide start residue: 140) (UniProt Q04941)”, with 0.000774.
“COASY (peptide sequence: LASILTSAAR, peptide start residue: 22) (UniProt Q13057)”: the log2 fold change was -0.051.
As for “PRDX1 (peptide sequence: DISLSDYKGK, peptide start residue: 28) (UniProt Q06830)”, the figure is 0.484; as for “UniProt Q03181 (peptide sequence: CLALGMSHNAIR, peptide start residue: 133)”, -0.147; as for “STX4 (peptide sequence: QALNEISAR, peptide start residue: 198) (UniProt Q12846)”, 0.226.
Then “CENPE (peptide sequence: SLFILGQVIK, peptide start residue: 261) (UniProt Q02224)”, with 0.555; and “UniProt P84103 (peptide sequence: VYVGNLGNNGNKTELER, peptide start residue: 12)”, with 0.0509; and “PRKCQ (peptide sequence: DMNEFETEGFFALHQR, peptide start residue: 130) (UniProt Q04759)”, with 0.244.
For the target “UniProt Q05655 (peptide sequence: FEHLLED, peptide start residue: 670)”, the log2 fold change came out at 0.187.
As for “NFKB2 (peptide sequence: NMMGTMIQK, peptide start residue: 145) (UniProt Q00653)”, the figure is -1.06; as for “IFRD2 (peptide sequence: QGALESLR, peptide start residue: 157) (UniProt Q12894)”, -0.112.
As for “MKRN3 (peptide sequence: GWAPFPVAPVPAHLRR, peptide start residue: 54) (UniProt Q13064)”, the figure is -0.305.
Then “NUCB1 (peptide sequence: YEMLKEHERR, peptide start residue: 179) (UniProt Q02818)”, with 0.713.
Turning to “UniProt Q03923 (peptide sequence: NVMLENYR, peptide start residue: 31)”, the log2 fold change is -0.157.
As for “UniProt Q01130 (peptide sequence: TSPDTLRR, peptide start residue: 25)”, the figure is 0.0687; as for “UniProt Q07912 (peptide sequence: AGPCILPIVR, peptide start residue: 840)”, 0.119.
